# Experimental data as given in PMC6127852 (Journal of Enzyme Inhibition and Medicinal Chemistry, 2018).
# System: ctDNA
# Experiment: Thermal melting (ΔTm) of ctDNA
# Type: binding, calf
# Details: from non-linear dependence of ΔTm on r; polynucleotide not given
# Protocol: T m experiments were conducted with a Perkin Elmer Lambda 25 spectrophotometer in 1 cm quartz cuvettes. The absorbance of the DNA/RNA-compound complex was monitored at 260 nm as a function of temperature. The absorbance of the ligands was subtracted from every curve, and the absorbance scale was normalised. The ΔT m values were calculated by subtracting T m of the free nucleic acid from T m of the complex. Every reported ΔT m value was the average of at least two measurements. The error of ΔT m is ±0.5 °C. All data were graphed and analysed using Origin software version 9.0.
# Denaturation experiments were carried out at different amounts of the compounds (r = 0.1, 0.3, 0.5, and 0.7 eq; r = [compound]/[polynucleotide]) with ctDNA and polyA-polyU.
row,Structure (SMILES),saturation of binding sites at ratio r
1,"Cl.Cl.c1ccc(SCn2cc(COc3ccc(-c4nc5cc(C6=NCCN6)ccc5[nH]4)cc3)nn2)cc1 [Compound 9e, 5–(4,5-Dihydro-1H-imidazol-2-yl)-2–(4-((1-(phenylthiomethyl)-1H-1,2,3-triazol-4-yl)methoxy)phenyl)-1H-benz[d]imidazole dihydrochloride]",0.3–0.5
2,"Cl.Cl.Clc1ccccc1-n1cc(COc2ccc(-c3nc4cc(C5=NCCN5)ccc4[nH]3)cc2)nn1 [Compound 9c, 5–(4,5-Dihydro-1H-imidazol-2-yl)-2–(4-((1–(2-chlorophenyl)-1H-1,2,3-triazol-4-yl)methoxy)phenyl)-1H-benz[d]imidazole dihydrochloride]",0.3–0.5
